Here are results for 4 sequences from PMC8102577.

Construct, isoform or probe ends are uncertain for at least one entry.

This series has as its system FgAreB GATA domain (FgAreBGATA-His). As to the kind of experiment: EMSA. Conditions: recombinant protein; protein details: His (pET32a); label: 3' biotin. (In general: In EMSA bound probe runs differently from free probe, usually more slowly.)

With “TATTAGTGATTATCAATCTCATAGCAATGATTTGA (double strand) [FgFHB2 promoter WT probe]”, the binding result is listed as “binds”.
The entry for “TCCAAGATTTTATCTTCCCGACTATTGTTCCACAGCAC (double strand) [FgNOR promoter WT probe]” is “binds”; for “TCTATCACGACATCTATAGATTTATCTCATCTACTACTACTATCT (double strand) [FgFHB1 promoter WT probe]” it is “binds”; for “TGCGAGACTCTCTTATCTCCTCCTTCCGATAGTTCG (double strand) [FgGSNOR promoter WT probe]” it is “binds”.
